## Percent effect of library compounds

Chains of the proteins cited; added tags and fusions are not shown. Residues count along the entry.
UniProt A4I591, 1-473: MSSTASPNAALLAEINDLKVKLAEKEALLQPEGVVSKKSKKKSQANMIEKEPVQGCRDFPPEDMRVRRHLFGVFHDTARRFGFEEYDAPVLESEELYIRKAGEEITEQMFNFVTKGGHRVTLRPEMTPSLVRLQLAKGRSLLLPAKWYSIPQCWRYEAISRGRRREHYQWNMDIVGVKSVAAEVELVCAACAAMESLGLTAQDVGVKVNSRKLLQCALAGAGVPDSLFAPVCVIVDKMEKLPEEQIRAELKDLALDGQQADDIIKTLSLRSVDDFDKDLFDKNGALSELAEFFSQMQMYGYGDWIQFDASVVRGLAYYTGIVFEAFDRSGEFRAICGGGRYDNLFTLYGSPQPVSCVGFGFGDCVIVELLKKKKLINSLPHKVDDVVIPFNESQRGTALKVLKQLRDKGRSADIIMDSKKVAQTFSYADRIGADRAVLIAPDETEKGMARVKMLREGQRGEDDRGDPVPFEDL
UniProt I6X8D2, whole entry: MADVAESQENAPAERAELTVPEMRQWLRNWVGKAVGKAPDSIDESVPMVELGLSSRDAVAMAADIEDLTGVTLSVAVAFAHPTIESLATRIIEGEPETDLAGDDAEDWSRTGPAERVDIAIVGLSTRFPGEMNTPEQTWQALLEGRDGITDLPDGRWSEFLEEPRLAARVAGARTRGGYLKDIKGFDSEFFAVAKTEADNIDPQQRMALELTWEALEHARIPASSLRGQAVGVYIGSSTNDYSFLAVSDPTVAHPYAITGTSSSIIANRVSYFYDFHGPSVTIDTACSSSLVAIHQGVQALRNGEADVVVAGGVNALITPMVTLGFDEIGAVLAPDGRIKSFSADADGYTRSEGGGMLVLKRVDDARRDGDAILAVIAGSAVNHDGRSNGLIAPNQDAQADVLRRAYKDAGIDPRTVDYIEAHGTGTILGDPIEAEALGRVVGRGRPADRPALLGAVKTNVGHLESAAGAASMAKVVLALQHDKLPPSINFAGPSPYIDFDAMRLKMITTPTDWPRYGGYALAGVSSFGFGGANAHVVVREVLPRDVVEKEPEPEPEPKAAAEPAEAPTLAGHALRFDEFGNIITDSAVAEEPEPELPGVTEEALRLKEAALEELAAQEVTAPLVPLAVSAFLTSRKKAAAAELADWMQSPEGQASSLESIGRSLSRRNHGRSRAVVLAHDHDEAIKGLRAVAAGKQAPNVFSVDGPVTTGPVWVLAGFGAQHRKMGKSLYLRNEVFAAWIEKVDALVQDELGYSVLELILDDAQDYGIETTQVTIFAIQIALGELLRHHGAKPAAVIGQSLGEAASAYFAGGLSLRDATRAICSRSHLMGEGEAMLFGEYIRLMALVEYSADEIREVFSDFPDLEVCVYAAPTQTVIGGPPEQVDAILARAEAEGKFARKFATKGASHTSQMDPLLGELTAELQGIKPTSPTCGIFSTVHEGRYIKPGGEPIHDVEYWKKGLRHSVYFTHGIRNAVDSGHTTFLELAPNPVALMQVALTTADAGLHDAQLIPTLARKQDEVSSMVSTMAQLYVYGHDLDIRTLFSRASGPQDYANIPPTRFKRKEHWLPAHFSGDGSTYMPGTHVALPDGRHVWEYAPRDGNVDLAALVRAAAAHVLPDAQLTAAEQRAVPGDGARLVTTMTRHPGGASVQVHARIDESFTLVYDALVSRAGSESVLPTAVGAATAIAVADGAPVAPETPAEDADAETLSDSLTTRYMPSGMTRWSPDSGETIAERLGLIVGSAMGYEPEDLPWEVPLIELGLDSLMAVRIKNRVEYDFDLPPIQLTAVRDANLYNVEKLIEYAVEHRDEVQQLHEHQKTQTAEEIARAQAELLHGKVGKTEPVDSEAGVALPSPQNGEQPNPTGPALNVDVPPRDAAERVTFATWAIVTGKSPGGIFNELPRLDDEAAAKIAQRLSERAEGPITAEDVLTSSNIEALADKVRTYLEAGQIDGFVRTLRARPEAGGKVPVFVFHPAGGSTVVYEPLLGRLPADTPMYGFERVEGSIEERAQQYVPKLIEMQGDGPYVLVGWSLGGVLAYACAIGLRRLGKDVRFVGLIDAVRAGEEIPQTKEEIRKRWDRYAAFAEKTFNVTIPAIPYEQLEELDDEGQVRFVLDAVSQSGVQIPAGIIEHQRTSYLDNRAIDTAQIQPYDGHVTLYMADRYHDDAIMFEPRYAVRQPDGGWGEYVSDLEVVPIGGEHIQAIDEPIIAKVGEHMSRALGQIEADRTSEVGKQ

A: 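Cell assay of Leishmania donovani living inside macrophages; the read-out is not stated. Tested at 30 µM. Higher reads as stronger inhibition (inferred: compounds with an IC50 in retests scored well above the rest). Of about 69,000 compounds tested this way, about 1,000 (1.5%) reached 50% or more in at least one test.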
B: 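Histidine-tRNA ligase, Leishmania infantum (UniProt A4I591). Enzyme assay of histidyl-tRNA synthetase; the read-out is not stated. Compounds at 30 µM. The record gives no direction; compounds that gave an IC50 in retests scored well above the rest, so higher reads as stronger inhibition. The assay is labelled LdHisRS but filed under L. infantum. Of about 69,000 compounds tested this way, about 410 (0.6%) reached 50% or more in at least one test.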
C: 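Polyketide synthase Pks13, Mycobacterium tuberculosis (UniProt I6X8D2). Enzyme assay of the thioesterase domain of polyketide synthase 13; the read-out is not stated. Tested at 30 µM. Higher reads as stronger inhibition (inferred from which compounds were picked for retests). Of about 67,000 compounds tested this way, about 300 (0.46%) reached 50% or more in at least one test.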

Results are given as percent effect. How 0% and 100% were set is not recorded. Most values in the screen are low, and negative values occur. Compounds were drawn at random from those tested, without regard to their results. A dash means the value is not listed here; it may have been measured.

* O=C(CNC(=O)c1ccc2c(c1)CCC2)NCCNc1ncccn1 : A: 13.64%; B: 9.649%; C: -7.416%
* Cc1nc(C2(NCc3cccc(F)c3F)CCCCC2)no1 : A: 15.79%; B: 22.86%; C: -39.49%
* CC(C(=O)N(Cc1ccc(C#N)cc1)CC(F)(F)F)S(C)(=O)=O (centres unmarked) : A: -0.8116%; B: 5.479%; C: -9.433%
* CO[C@@H]1CC[C@H]2[C@H]1OCCN2C(=O)c1ccco1 : B: 14.04%; C: -29.73%
* CN(C)C(=O)CN1C[C@@H]2CC[C@H](C1)N(Cc1ccc(Cl)cc1Cl)C2 : B: 32%; C: -4.669%
* COc1ccccc1CNC(Cc1cccs1)c1nc(C)cs1 (centres unmarked) : B: -5.263%; C: 9.433%
* CC(C)n1ncc2c1NC(=O)CSC2C(F)(F)F (centres unmarked) : A: -3.803%; B: 23.68%; C: -20.61%
* CCCn1ncc2c(C(=O)Nc3n[nH]c(SC)n3)cc(C3CC3)nc21 : A: -3.043%; B: 20%; C: -15.19%
* COc1ncccc1CN1CCc2[nH]nc(C(=O)N3CCCC3C)c2C1.O=C(O)C(F)(F)F.O=C(O)C(F)(F)F (centres unmarked) : A: 1.536%
* COc1cc2c(cc1CNC(=O)Cc1ccc(C)nc1)OC(C)C2 (centres unmarked) : A: 3.29%; B: 6.306%; C: -6.528%
* O=C(O)C(F)(F)F.O=C1Nc2ccccc2C12CCN(Cc1nccs1)CC2 : A: 18.81%
* COc1ccc(F)cc1-c1ccccc1CC1CNCCNC1=O (centres unmarked) : B: 4.196%; C: -5.662%
* Cc1nc2c(c(C)c1CC(=O)NCc1ccccc1F)c(=O)[nH]n2C : A: -0.6344%; B: 11.5%; C: -9.376%
* Cc1ccc(F)c(C(=O)Nc2c(C(N)=O)n[nH]c2C)c1 : A: 19.64%; B: 0%; C: -42.49%
* COc1cccc2c1OCC(NCc1cnn(-c3ccccc3)c1)C2 (centres unmarked) : A: -35.89%; B: 1.408%; C: -6.707%
* Cc1nnc(C(C)N2CCCN(Cc3ccc(C#N)cc3)CC2)o1 (centres unmarked) : A: 45.75%; B: 16.07%; C: -1.872%
* Cc1cc(N[C@H]2CCCN(Cc3ccccc3)C2)n2nc(C)cc2n1 : A: 10.02%; B: 35.62%; C: -26.24%
* Cc1ccc2c(c1)C(=O)NCC1(CCN(C(=O)c3ccnn3C)CC1)O2 : A: 23.56%; B: 20%; C: -5.28%
* CCN(CC)CCCNC(=O)C(C)n1cc(Br)cn1 (centres unmarked) : A: -49.36%; B: 10.62%; C: -16.9%
* CCc1nnc2n1CCN(Cc1cc(Cl)c3c(c1)OCCCO3)C2 : A: -18.95%; B: 11.01%; C: -24.67%
* CC(=O)Nc1ccc(C(=O)N(C)Cc2cccc(F)c2)s1 : A: -28.94%; B: 12.35%; C: 8.134%
* [H][C@@]12C[C@H](c3noc(C)n3)O[C@@]1([H])CCN(C(=O)c1ccoc1C)C2 : A: -7.35%

For reference, 2 entries once more:

SMILES,A,B,C
COc1ncccc1CN1CCc2[nH]nc(C(=O)N3CCCC3C)c2C1.O=C(O)C(F)(F)F.O=C(O)C(F)(F)F (centres unmarked),1.536%,-,-
COc1cc2c(cc1CNC(=O)Cc1ccc(C)nc1)OC(C)C2 (centres unmarked),3.29%,6.306%,-6.528%

Data taken from ChEMBL document CHEMBL3988442, “University of Dundee, Small-Polar-MMV Screening Library” (2021).